Experimental data reported in EP0560235B1, “Condensed heterocyclic ketone derivatives, their production and use” (priority 1992, dated 1993).

By UniProt entry, the sequences of proteins in these tests, tags left out. Residues count along the entry.
UniProt P37136, 32-614 limits assumed: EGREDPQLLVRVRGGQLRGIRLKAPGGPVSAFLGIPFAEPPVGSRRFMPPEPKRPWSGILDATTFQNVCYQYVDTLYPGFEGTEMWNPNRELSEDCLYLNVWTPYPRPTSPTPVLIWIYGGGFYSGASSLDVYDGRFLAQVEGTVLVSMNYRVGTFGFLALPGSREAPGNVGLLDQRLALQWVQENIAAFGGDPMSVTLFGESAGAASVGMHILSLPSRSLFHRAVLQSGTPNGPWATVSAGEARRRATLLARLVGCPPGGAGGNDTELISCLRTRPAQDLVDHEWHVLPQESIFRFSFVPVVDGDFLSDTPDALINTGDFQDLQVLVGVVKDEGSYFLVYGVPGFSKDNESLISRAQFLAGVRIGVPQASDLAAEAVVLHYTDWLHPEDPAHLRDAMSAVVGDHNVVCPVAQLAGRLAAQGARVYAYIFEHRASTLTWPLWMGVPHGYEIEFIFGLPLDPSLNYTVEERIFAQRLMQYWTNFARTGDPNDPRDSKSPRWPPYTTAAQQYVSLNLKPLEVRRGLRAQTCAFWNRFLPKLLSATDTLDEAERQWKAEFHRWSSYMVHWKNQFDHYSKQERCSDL

Target: cholinesterase (Rattus norvegicus, UniProt P37136)
Test: Cholinesterase inhibitory activity assayed with (acetyl-[3H])-acetylcholine, S1 fraction of cerebral cortex homogenate
Format: biochemical
Details: read-out: Acetylcholinesterase inhibitory activity I C50; S1 fraction of male Wistar rat cerebral cortex homogenate; (acetyl-[3H])-acetylcholine substrate; 30 minutes incubation

Structure (SMILES): O=C(CCN1CCN(Cc2ccccc2)CC1)c1ccc2c(c1)CCN(Cc1ccccc1)CC2
- IC50: 52.6 nM

Structures were worked out from names or drawings and are uncertain.
